No constants are given. Whether binding was seen depends on the method and setting. Some results given as binding are weak or reduced against the parent protein; the word gives no strength.
These binders were tested against huCTLA-4 ECD (his-tag) (human) (UniProt P16410) (assay: ELISA, coated huCTLA-4 his).

Protein sequences, listed by entry. Tags and fused reporters are not part of them. Lines headed by an entry give the natural chain unless they say otherwise; changes in a name come on top.
UniProt P16410: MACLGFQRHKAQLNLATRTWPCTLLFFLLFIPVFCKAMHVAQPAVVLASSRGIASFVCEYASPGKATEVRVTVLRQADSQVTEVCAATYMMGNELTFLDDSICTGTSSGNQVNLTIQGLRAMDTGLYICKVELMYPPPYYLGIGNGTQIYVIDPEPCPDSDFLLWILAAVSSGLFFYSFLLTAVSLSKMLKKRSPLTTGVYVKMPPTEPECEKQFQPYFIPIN

| binding | Binder |
| --- | --- |
| binds | HuJS007-32 (antibody, V domains shown) VH: QVQLQESGPGLVKPSQTLSLTCAVSGYSITSGYYWNWIRQHPGKGLEWIGYIGYDGSNYYNPSLKSRVTISRDTSKNQFSLKLSSVTAADTAVYFCARNYYSGYFDFWGQGTTLTVSS VL: DIQMTQSPSSLSASVGDRVTITCQASQNVGTYVAWYQQKPGKAPKPLIYSTSYRYSGVPSRFSGSGSGTDFTFTISSLQPEDIATYFCHQYDTYPLTFGAGTKLELK |
| binds | HuJS007-31 (antibody, V domains shown) VH: QVQLQESGPGLVKPSQTLSLTCAVSGYSITSGYYWNWIRQHPGKGLEWIGYIGYDGSNYYNPSLKSRVTISRDTSKNQFSLKLSSVTAADTAVYFCARNYYSGYFDFWGQGTTLTVSS VL: DIQMTQSPSFLSASVGDRVTITCRASQNVGTYVAWYQQKPGKAPKPLIYSTSYRYSGVPSRFSGSGSGTEFTLTISSLQPEDFATYFCHQYDTYPLTFGAGTKLELK |
| binds | HuJS007-34 (antibody, V domains shown) VH: QVQLQESGPGLVKPSQTLSLTCAVSGYSITSGYYWNWIRQHPGKGLEWIGYIGYDGSNYYNPSLKSRVTISRDTSKNQFSLKLSSVTAADTAVYFCARNYYSGYFDFWGQGTTLTVSS VL: EIVMTQSPATLSVSPGERATLSCRASQNVGTYVAWYQQKPGQAPRPLIYSTSYRYSGIPARFSGSGSGTEFTLTISSLQSEDFAVYYCHQYDTYPLTFGQGTKLEIK |
| binds | HuJS007-35 (antibody, V domains shown) VH: QVQLQESGPGLVKPSQTLSLTCAVSGYSITSGYYWNWIRQHPGKGLEWIGYIGYDGSNYYNPSLKSRVTISRDTSKNQFSLKLSSVTAADTAVYFCARNYYSGYFDFWGQGTTLTVSS VL: DIVMTQSPDSLAVSLGERATINCKASQNVGTYVAWYQQKPGQPPKPLIYSTSYRYSGVPDRFSGSGSGTDFTLTISSLQAEDVAVYFCHQYDTYPLTFGQGTKLEIK |
| binds | HuJS007-39 (antibody, V domains shown) VH: QVQLQESGPGLVKPSQTLSLTCTVSGYSITSGYYWNWIRQHPGKGLEWIGYIGYDGSNNYNPSLKSRVTISRDTSKNQFSLKLSSVTAADTAVYYCARDYYSGYFDSWGQGTTLTVSS VL: DIQMTQSPSSLSASVGDRVTITCRASQNVGTYVAWYQQKPGKAPKPLIYSTSYRYSGVPSRFSGSGSGTDFTLTISSLQPEDFATYFCHQYDTYPLTFGAGTKLELK |
| binds | HuJS007-36 (antibody, V domains shown) VH: QVQLQESGPGLVKPSQTLSLTCAVSGYSITSGYYWNWIRQHPGKGLEWIGYIGYDGSNYYNPSLKSRVTISRDTSKNQFSLKLSSVTAADTAVYFCARNYYSGYFDFWGQGTTLTVSS VL: EIVMTQSPATLSVSPGERATLSCKASQNVGTYVAWYQQKPGQAPRPLIYSTSYRYSGIPARFSGSGSGTEFTLTISSLQSEDFAVYFCHQYDTYPLTFGQGTKLEIK |
| binds | HuJS007-41 (antibody, V domains shown) VH: QVQLQESGPGLVKPSQTLSLTCTVSGYSITSGYYWNWIRQHPGKGLEWIGYIGYDGSNNYNPSLKSRVTISRDTSKNQFSLKLSSVTAADTAVYYCARDYYSGYFDSWGQGTTLTVSS VL: DIQMTQSPSSLSASVGDRVTITCQASQNVGTYVAWYQQKPGKAPKPLIYSTSYRYSGVPSRFSGSGSGTDFTFTISSLQPEDIATYFCHQYDTYPLTFGAGTKLELK |
| binds | HuJS007-43 (antibody, V domains shown) VH: QVQLQESGPGLVKPSQTLSLTCTVSGYSITSGYYWNWIRQHPGKGLEWIGYIGYDGSNNYNPSLKSRVTISRDTSKNQFSLKLSSVTAADTAVYYCARDYYSGYFDSWGQGTTLTVSS VL: EIVMTQSPATLSVSPGERATLSCRASQNVGTYVAWYQQKPGQAPRPLIYSTSYRYSGIPARFSGSGSGTEFTLTISSLQSEDFAVYYCHQYDTYPLTFGQGTKLEIK |
| binds | HuJS007-38 (antibody, V domains shown) VH: QVQLQESGPGLVKPSQTLSLTCTVSGYSITSGYYWNWIRQHPGKGLEWIGYIGYDGSNNYNPSLKSRVTISRDTSKNQFSLKLSSVTAADTAVYYCARDYYSGYFDSWGQGTTLTVSS VL: DIQMTQSPSSLSASVGDRVTITCRASQNVGTYVAWYQQKPGKVPKPLIYSTSYRYSGVPSRFSGSGSGTDFTLTISSLQPEDVATYFCHQYDTYPLTFGAGTKLELK |
| binds | HuJS007-40 (antibody, V domains shown) VH: QVQLQESGPGLVKPSQTLSLTCTVSGYSITSGYYWNWIRQHPGKGLEWIGYIGYDGSNNYNPSLKSRVTISRDTSKNQFSLKLSSVTAADTAVYYCARDYYSGYFDSWGQGTTLTVSS VL: DIQMTQSPSFLSASVGDRVTITCRASQNVGTYVAWYQQKPGKAPKPLIYSTSYRYSGVPSRFSGSGSGTEFTLTISSLQPEDFATYFCHQYDTYPLTFGAGTKLELK |
| binds | HuJS007-30 (antibody, V domains shown) VH: QVQLQESGPGLVKPSQTLSLTCAVSGYSITSGYYWNWIRQHPGKGLEWIGYIGYDGSNYYNPSLKSRVTISRDTSKNQFSLKLSSVTAADTAVYFCARNYYSGYFDFWGQGTTLTVSS VL: DIQMTQSPSSLSASVGDRVTITCRASQNVGTYVAWYQQKPGKAPKPLIYSTSYRYSGVPSRFSGSGSGTDFTLTISSLQPEDFATYFCHQYDTYPLTFGAGTKLELK |
| binds | HuJS007-42 (antibody, V domains shown) VH: QVQLQESGPGLVKPSQTLSLTCTVSGYSITSGYYWNWIRQHPGKGLEWIGYIGYDGSNNYNPSLKSRVTISRDTSKNQFSLKLSSVTAADTAVYYCARDYYSGYFDSWGQGTTLTVSS VL: DIVMTQSPDSLAVSLGERATINCKASQNVGTYVAWYQQKPGQPPKLLIYSTSYRYSGVPDRFSGSGSGTDFTLTISSLQAEDVAVYYCHQYDTYPLTFGQGTKLEIK |
| binds | HuJS007-44 (antibody, V domains shown) VH: QVQLQESGPGLVKPSQTLSLTCTVSGYSITSGYYWNWIRQHPGKGLEWIGYIGYDGSNNYNPSLKSRVTISRDTSKNQFSLKLSSVTAADTAVYYCARDYYSGYFDSWGQGTTLTVSS VL: DIVMTQSPDSLAVSLGERATINCKASQNVGTYVAWYQQKPGQPPKPLIYSTSYRYSGVPDRFSGSGSGTDFTLTISSLQAEDVAVYFCHQYDTYPLTFGQGTKLEIK |
| binds | HuJS007-33 (antibody, V domains shown) VH: QVQLQESGPGLVKPSQTLSLTCAVSGYSITSGYYWNWIRQHPGKGLEWIGYIGYDGSNYYNPSLKSRVTISRDTSKNQFSLKLSSVTAADTAVYFCARNYYSGYFDFWGQGTTLTVSS VL: DIVMTQSPDSLAVSLGERATINCKASQNVGTYVAWYQQKPGQPPKLLIYSTSYRYSGVPDRFSGSGSGTDFTLTISSLQAEDVAVYYCHQYDTYPLTFGQGTKLEIK |
| binds | HuJS007-45 (antibody, V domains shown) VH: QVQLQESGPGLVKPSQTLSLTCTVSGYSITSGYYWNWIRQHPGKGLEWIGYIGYDGSNNYNPSLKSRVTISRDTSKNQFSLKLSSVTAADTAVYYCARDYYSGYFDSWGQGTTLTVSS VL: EIVMTQSPATLSVSPGERATLSCKASQNVGTYVAWYQQKPGQAPRPLIYSTSYRYSGIPARFSGSGSGTEFTLTISSLQSEDFAVYFCHQYDTYPLTFGQGTKLEIK |
| binds | HuJS007-37 (antibody, V domains shown) VH: QVQLQESGPGLVKPSQTLSLTCTVSGYSITSGYYWNWIRQHPGKGLEWIGYIGYDGSNNYNPSLKSRVTISRDTSKNQFSLKLSSVTAADTAVYYCARDYYSGYFDSWGQGTTLTVSS VL: DIVMTQSPDSLAVSLGERATINCKASQNVGTYVAWYQQKPGQPPKPLIYSTSYRYSGVPDRFSGSGSGTDFTLTISSLQAEDVAVYFCHQYDTYPLTFGAGTKLELK |

Each binder was assayed against huCTLA-4 (human) (UniProt P16410) (assay: ForteBio, antibody captured on protein A probe, 55 nM huCTLA antigen).

| binding | Binder |
| --- | --- |
| binds | huJS007-47 (antibody, human IgG1, kappa, V domains shown) VH: QVQLQESGPGLVKPSQTLSLTCTVSAYSITSGYYWNWIRQHPGKGLEWIGYIGYDGSNNYNPSLKSRVTISRDTSKNQFSLKLSSVTAADTAVYYCARDYYSGYFDSWGQGTTLTVSS VL: DIQMTQSPSSLSASVGDRVTITCRASQNVGTYVAWYQQKPGKVPKPLIYSTSYRYSGVPSRFSGSGSGTDFTLTISSLQPEDVATYFCHQYDTYPLTFGAGTKLELKR |

These binders were tested against huCTLA-4 (human) (UniProt P16410) (assay: ForteBio).

| binding | Binder |
| --- | --- |
| binds | 3E6.1 (antibody, V domains shown) VH: EVKLVESGGGLVQPGGSLRLSCATSGFTFTDYYMSWVRQPPGKALEWLGFIRNKANGFTAEYSASVKGRFTISRDNSQSILYLQMNTLRAEDSATYYCARDSLAYPHYYAMDYWGQGTSVTVSS VL: QIVLTQSPALMSASPGEKVTMTCSASSSVSYMYWYQQKPRSSPKPWIYLTSNLASGVPVRFSGSGSGTSYSLTISSMEAEDAATYYCQQWSSNSFTFGSGTKLEIK |
| binds | 1A5.1 (antibody, V domains shown) VH: DVQLQESGQGLVKPSQSLSLTCSVTGYSITSGYYWNWIRQFPGNKLEWLGYIGYDGSNYYNPSLKNRISITRDTSKNQFFLKLNSVTSEDTATYFCARNYYSGYFDFWGQGTTLTVSS VL: DIVMTQSQKFMSTSVGDRVSVTCKASQIVGSYVAWYQQKLGQSPKALIYSTSYRHSGVPDRFTGSGSGTDFTLTISNVQSEDLAEYFCQQHHLPLTFGAGTKLEIK |

Reference: patent US20230295301A1
